Experimental data reported in paper PMC4721948.
Results are given in words; binding and its absence hold for the method and conditions named. Binding seen in cells or lysates may run through a third protein. Some results given as binding are weak or reduced against the parent protein; the word gives no strength.

Tests used:
[1] = biological target: wild-type human APP overexpressed in N2a cells (human) (UniProt P05067); assay: co-IP; lysates of N2a cells overexpressing APPwt and APPL1wt, treated with MiTMAB (dynamin I and II inhibitor) to block endocytosis; IP with C1/6.1 or APPL1 antibody, immunoblot
[2] = biological target: T1, APPL1 (adaptor protein containing pleckstrin homology domain, phosphotyrosine binding domain and leucine zipper motif), wild type (UniProt Q9UKG1); assay: co-IP; lysates of transfected HEK293 cells overexpressing APP (APPwt, APPmv or APP_(AENATA)) and APPL1 (wt or ΔPTB); IP with antibodies against APPL1 or against APP (C1/6.1 or 6E10), immunoblot; 10% of total lysate as input
T1 sequence: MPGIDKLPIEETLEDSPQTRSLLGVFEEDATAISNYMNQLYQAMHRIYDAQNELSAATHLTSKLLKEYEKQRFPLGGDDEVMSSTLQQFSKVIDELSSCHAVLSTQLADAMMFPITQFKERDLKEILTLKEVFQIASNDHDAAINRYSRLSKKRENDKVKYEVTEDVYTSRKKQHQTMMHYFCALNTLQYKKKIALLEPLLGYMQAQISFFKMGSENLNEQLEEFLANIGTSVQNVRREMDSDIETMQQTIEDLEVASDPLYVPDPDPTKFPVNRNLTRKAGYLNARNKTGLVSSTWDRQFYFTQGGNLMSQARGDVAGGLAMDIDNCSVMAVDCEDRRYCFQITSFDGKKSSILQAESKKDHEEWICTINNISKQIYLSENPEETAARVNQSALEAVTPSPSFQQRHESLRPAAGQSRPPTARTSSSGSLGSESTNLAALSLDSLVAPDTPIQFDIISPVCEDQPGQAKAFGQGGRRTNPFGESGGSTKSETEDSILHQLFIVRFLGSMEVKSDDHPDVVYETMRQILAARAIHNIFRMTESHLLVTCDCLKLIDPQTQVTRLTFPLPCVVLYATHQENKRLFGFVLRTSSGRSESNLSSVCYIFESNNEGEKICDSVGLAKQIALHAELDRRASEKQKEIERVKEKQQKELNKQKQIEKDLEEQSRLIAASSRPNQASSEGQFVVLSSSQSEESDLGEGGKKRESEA

[3] = biological target: mutant APP M596V (APPmv), β-cleavage-incompetent (human) (UniProt P05067); assay: as above

B1: FE65 in N2a cells (protein, UniProt Q9QXJ1 1-710)
chain: MSVPSSLSQSAINANSHGGPALSFPLPLHAAHNQLLNAKLQATAVVPKDLRSAMGEGSVPEPGPANAKWLKEGQNQLRRAATAHRDQNRNVTLTLAEEASQEAETAPLGPKGLMHLYSELELSAHNAANRGLHGSALIINTQEQGPDEGEEKAAGEAEEDDEDEEEEEEEEDLSSPPGLPEPLENVEVPSGPQALTDGPREHSKSASLLFGMRNSAASDEDSSWATLSQGSPSYGSPEDTDSFWNPNAFETDSDLPAGWMRVQDTSGTYYWHIPTGTTQWEPPGRASPSQGSSPQEESQLTWTGFAHQEGFEEGEFWKDEPSEEAPMELGLKDPEEATLSFPAQSLSPEPVPQEEEKLSQRNANPGIKCFAVRSLGWVEMTEEELAPGRSSVAVNNCIRQLSYHKNNLHDPMAGGWGEGKDLLLQLEDETLKLVEPQNQTLLHAQPIVSIRVWGVGRDSGSNRDFAYVARDKLTQMLKCHVFRCEAPAKNIATSLHEICSKIMSERRNARCLVNGLSLDHSKLVDVPFQVEFPAPKNELVQKFQVYYLGNVPVAKPVGVDVINGALESVLSSSSREQWTPSHVSVAPATLTILHQQTEAVLGECRVRFLSFLAVGRDVHTFAFIMAAGPASFCCHMFWCEPNAASLSEAVQAACMLRYQKCLDARSQTSTSCLPAPPAESVARRVGWTVRRGVQSLWGSLKPKRLGSQTP
With B1 the binding [1] was “binds”.

B2: FE65, an adaptor protein containing the PTB domain (protein, UniProt O00213 1-710)
chain: MSVPSSLSQSAINANSHGGPALSLPLPLHAAHNQLLNAKLQATAVGPKDLRSAMGEGGGPEPGPANAKWLKEGQNQLRRAATAHRDQNRNVTLTLAEEASQEPEMAPLGPKGLIHLYSELELSAHNAANRGLRGPGLIISTQEQGPDEGEEKAAGEAEEEEEDDDDEEEEEDLSSPPGLPEPLESVEAPPRPQALTDGPREHSKSASLLFGMRNSAASDEDSSWATLSQGSPSYGSPEDTDSFWNPNAFETDSDLPAGWMRVQDTSGTYYWHIPTGTTQWEPPGRASPSQGSSPQEESQLTWTGFAHGEGFEDGEFWKDEPSDEAPMELGLKEPEEGTLTFPAQSLSPEPLPQEEEKLPPRNTNPGIKCFAVRSLGWVEMTEEELAPGRSSVAVNNCIRQLSYHKNNLHDPMSGGWGEGKDLLLQLEDETLKLVEPQSQALLHAQPIISIRVWGVGRDSGRERDFAYVARDKLTQMLKCHVFRCEAPAKNIATSLHEICSKIMAERRNARCLVNGLSLDHSKLVDVPFQVEFPAPKNELVQKFQVYYLGNVPVAKPVGVDVINGALESVLSSSSREQWTPSHVSVAPATLTILHQQTEAVLGECRVRFLSFLAVGRDVHTFAFIMAAGPASFCCHMFWCEPNAASLSEAVQAACMLRYQKCLDARSQASTSCLPAPPAESVARRVGWTVRRGVQSLWGSLKPKRLGAHTP
In the case of B2, the binding [2] is reported as “no binding”.

B3: APPL1 (adaptor protein containing pleckstrin homology domain, phosphotyrosine binding domain and leucine zipper motif), wild type (protein, UniProt Q9UKG1 1-709)
chain: T1 sequence
In the case of B3, the binding [3] is reported as “no binding”.
